Laboratory results reported in PubChem BioAssay AID720554 (ICCB-Longwood Screening Facility, Harvard Medical School, 2013).
This is one part of the list.

Test: BmaI1 acyl-homoserine lactone synthase inhibition – biochemical, fluorescence intensity, with counterscreen (AID 720554)
Conditions: BmaI1 enzyme assay, measured here: counterscreen fluorescence % control, concentration not given here
`CCSP(=O)(c1ccccc1)c1ccccc1` gave an inhibition of 11%. With `CP(=O)(N1CCOCC1)N1CCOCC1` the inhibition was 12.5%. Compound `CCN1C(=O)N(c2ccccc2)P(=S)(OC)c2cc3c(cc21)OCCO3` (stereo not given) has an inhibition of -1%. Compound `CCc1ccc(OP(C)(=O)Nc2cccnc2)cc1` (stereo not given) has an inhibition of 7%. In the case of `O=P1(Nc2nncs2)C=C(c2ccccc2)SC(c2ccccc2)=C1`, the inhibition is reported as 16.5%.
